These results are taken from article PMC12859064.

Sequences of proteins named here, by UniProt entry; tags and fusion partners are left off.
UniProt O15169: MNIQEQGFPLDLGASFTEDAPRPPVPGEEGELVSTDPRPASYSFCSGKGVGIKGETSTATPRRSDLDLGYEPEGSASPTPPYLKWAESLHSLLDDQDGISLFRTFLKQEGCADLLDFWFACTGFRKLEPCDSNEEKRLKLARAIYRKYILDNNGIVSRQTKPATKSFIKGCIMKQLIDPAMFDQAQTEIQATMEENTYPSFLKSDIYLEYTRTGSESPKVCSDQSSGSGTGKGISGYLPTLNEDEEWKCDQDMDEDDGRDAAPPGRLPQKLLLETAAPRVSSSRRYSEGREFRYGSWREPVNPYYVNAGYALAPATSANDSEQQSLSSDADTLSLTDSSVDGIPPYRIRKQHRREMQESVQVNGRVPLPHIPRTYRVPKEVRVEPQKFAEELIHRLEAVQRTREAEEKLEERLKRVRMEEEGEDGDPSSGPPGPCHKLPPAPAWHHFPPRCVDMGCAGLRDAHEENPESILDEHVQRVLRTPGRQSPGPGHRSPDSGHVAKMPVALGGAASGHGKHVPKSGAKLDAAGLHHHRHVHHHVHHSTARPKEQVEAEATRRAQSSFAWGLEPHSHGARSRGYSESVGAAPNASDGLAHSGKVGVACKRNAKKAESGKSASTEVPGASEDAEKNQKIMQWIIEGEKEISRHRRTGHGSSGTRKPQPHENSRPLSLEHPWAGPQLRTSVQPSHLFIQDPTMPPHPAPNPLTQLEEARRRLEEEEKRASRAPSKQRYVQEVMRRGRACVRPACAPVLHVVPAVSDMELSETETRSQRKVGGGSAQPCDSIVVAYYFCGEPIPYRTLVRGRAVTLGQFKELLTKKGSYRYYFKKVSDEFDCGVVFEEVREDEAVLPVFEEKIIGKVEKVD
UniProt P35222: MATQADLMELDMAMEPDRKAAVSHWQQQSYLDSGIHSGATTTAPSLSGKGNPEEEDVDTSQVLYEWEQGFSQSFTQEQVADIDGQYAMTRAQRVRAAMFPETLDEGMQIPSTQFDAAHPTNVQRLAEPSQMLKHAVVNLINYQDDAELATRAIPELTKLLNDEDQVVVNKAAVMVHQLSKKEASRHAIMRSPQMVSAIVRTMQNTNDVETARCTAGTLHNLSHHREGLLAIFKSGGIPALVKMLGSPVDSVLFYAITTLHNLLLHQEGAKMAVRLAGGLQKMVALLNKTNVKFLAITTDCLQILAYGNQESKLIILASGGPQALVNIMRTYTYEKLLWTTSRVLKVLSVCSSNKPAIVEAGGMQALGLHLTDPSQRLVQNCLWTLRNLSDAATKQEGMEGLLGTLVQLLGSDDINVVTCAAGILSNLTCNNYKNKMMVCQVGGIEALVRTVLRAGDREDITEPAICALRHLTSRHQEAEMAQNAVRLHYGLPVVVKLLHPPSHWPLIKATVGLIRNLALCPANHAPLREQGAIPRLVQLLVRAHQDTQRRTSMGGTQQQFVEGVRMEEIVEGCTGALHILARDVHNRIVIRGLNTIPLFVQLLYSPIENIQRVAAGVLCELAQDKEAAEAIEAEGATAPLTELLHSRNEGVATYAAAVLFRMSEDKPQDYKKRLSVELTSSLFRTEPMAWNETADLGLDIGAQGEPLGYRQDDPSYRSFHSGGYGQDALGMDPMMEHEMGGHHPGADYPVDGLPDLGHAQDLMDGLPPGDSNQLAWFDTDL

Test [1] concerns the target endogenous Axin1 (human (endogenous in HCT116)) (UniProt O15169). Nature of the test: co-IP; HCT116 lysates, control IgG or anti-Axin1 or anti-β-TrCP antibody; in Fig. 3g, h cells with siCtrl or siTRIM15 for 72 h and MG132 (20 μM) for 6 h before lysis.
Test [2] shares this target. Put plainly: co-IP; Flag-TRIM15 and endogenous Axin1 in HCT116 cells; Western blot.
Test [3] has the same target. Nature of the test: co-IP; HCT116 lysates, control IgG or anti-Axin1 or anti-β-TrCP antibody; in Fig. 3g, h cells with siCtrl or siTRIM15 for 72 h and MG132 (20 μM) for 6 h before lysis. This is another data set of the same source.

Results are given in words; binding and its absence hold for the method and conditions named. Binding seen in cells or lysates may run through a third protein. Some results given as binding are weak or reduced against the parent protein; the word gives no strength. For part of these data: Tags and fused reporters may be left off the sequences shown.

As to “endogenous phosphorylated β-catenin (from UniProt P35222 1-781)”, in test [1], the binding entry is recorded as “binds”.

B1: Flag-TRIM15 in HCT116 cells (protein, UniProt Q9C019 1-465)
chain: MPATPSLKVVHELPACTLCAGPLEDAVTIPCGHTFCRLCLPALSQMGAQSSGKILLCPLCQEEEQAETPMAPVPLGPLGETYCEEHGEKIYFFCENDAEFLCVFCREGPTHQAHTVGFLDEAIQPYRDRLRSRLEALSTERDEIEDVKCQEDQKLQVLLTQIESKKHQVETAFERLQQELEQQRCLLLARLRELEQQIWKERDEYITKVSEEVTRLGAQVKELEEKCQQPASELLQDVRVNQSRCEMKTFVSPEAISPDLVKKIRDFHRKILTLPEMMRMFSENLAHHLEIDSGVITLDPQTASRSLVLSEDRKSVRYTRQKKSLPDSPLRFDGLPAVLGFPGFSSGRHRWQVDLQLGDGGGCTVGVAGEGVRRKGEMGLSAEDGVWAVIISHQQCWASTSPGTDLPLSEIPRGVRVALDYEAGQVTLHNAQTQEPIFTFTASFSGKVFPFFAVWKKGSCLTLKG
Consider B1, for which, in test [2], the binding entry is reported as “binds”.

B2: endogenous TRIM15 (protein, UniProt Q9C019 1-465)
chain: MPATPSLKVVHELPACTLCAGPLEDAVTIPCGHTFCRLCLPALSQMGAQSSGKILLCPLCQEEEQAETPMAPVPLGPLGETYCEEHGEKIYFFCENDAEFLCVFCREGPTHQAHTVGFLDEAIQPYRDRLRSRLEALSTERDEIEDVKCQEDQKLQVLLTQIESKKHQVETAFERLQQELEQQRCLLLARLRELEQQIWKERDEYITKVSEEVTRLGAQVKELEEKCQQPASELLQDVRVNQSRCEMKTFVSPEAISPDLVKKIRDFHRKILTLPEMMRMFSENLAHHLEIDSGVITLDPQTASRSLVLSEDRKSVRYTRQKKSLPDSPLRFDGLPAVLGFPGFSSGRHRWQVDLQLGDGGGCTVGVAGEGVRRKGEMGLSAEDGVWAVIISHQQCWASTSPGTDLPLSEIPRGVRVALDYEAGQVTLHNAQTQEPIFTFTASFSGKVFPFFAVWKKGSCLTLKG
As for B2, the binding result in test [3] is listed as “binds”.
